Experiment: general procedure: Fmoc solid-phase peptide synthesis; Rink amide MBHA resin (0.67 mmol g-1); 2-chlorotrityl or Wang resin for C-terminal acids; DIC/Oxyma (automated); BOP/DiPEA (manual)
Settings: whole synthesis, scale of the general procedure 0.25 mmol

First: FA-sywoOGoWTIN-CONH2
Second: FA-sywoOGoWTINAG-CONH2
The isolated yield of the first is lower: 24% for the first, 29% for the second.

Compared with FA-sawoOGoWTINGG-CONH2, FA-sywoOGoWTIAGG-CONH2 is lower in isolated yield: 31% for the first, 6% for the second.

Compared with FA-sywoOAoWTINGG-CONH2, FA-sywoOGoWTING-CONH2 is higher in isolated yield: 11% for the first, 29% for the second.

Going from FA-sywoOGoWAINGG-CONH2 to FA-syaoOGoWTINGG-CONH2, the isolated yield falls from 43% to 37%.

Going from FA-sywoOGoWTINGA-CONH2 to FA-sywoOGoATINGG-CONH2, the isolated yield falls from 32% to 31%.

Going from FA-aywoOGoWTINGG-CONH2 to FA-sywaOGoWTINGG-CONH2, the isolated yield falls from 34% to 27%.

First: FA-sywoOGoWTANGG-CONH2
Second: FA-sywoAGoWTINGG-CONH2
The isolated yield of the first is higher: 34% for the first, 30% for the second.

FA-sywoOGaWTINGG-CONH2 showed an isolated yield of 28%.

Source: patent publication US20240140991A1 (THE QUEEN'S UNIVERSITY OF BELFAST, priority 2021, published 2024)
